From US20070185094A1, “Novel 3-substitued-1,4-benzodiazepines” (ASTON UNIVERSITY, priority 2003, published 2007)

Sequences of proteins named here, by UniProt entry; tags and fusion partners are left off. Residues count along the entry.
UniProt H0VZC5, 1-426: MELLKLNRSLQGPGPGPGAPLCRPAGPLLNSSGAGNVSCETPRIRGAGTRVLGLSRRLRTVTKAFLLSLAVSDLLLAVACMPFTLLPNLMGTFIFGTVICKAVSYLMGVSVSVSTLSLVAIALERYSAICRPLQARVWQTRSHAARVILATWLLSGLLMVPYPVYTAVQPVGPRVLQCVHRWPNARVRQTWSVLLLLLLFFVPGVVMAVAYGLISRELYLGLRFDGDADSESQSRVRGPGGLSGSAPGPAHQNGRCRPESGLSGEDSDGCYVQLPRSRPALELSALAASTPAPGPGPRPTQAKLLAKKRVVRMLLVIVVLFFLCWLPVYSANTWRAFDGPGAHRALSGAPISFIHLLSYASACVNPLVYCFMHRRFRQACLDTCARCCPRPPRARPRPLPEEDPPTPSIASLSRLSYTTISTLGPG
UniProt P30551, whole entry: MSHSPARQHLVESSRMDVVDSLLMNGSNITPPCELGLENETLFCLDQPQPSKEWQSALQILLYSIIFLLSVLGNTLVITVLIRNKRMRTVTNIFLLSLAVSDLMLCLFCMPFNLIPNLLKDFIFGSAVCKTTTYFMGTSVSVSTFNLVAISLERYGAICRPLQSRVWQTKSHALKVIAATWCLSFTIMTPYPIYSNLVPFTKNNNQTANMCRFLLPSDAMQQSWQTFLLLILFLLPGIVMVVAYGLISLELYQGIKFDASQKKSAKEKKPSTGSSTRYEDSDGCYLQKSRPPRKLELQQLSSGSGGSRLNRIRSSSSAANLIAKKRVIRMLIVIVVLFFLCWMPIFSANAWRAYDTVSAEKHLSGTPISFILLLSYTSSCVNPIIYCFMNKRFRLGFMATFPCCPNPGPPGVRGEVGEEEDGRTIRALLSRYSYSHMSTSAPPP

Tests used:
CCKB receptor = CCKB receptor (Cavia porcellus, UniProt H0VZC5); test: 125I-CCK-8 receptor binding assay, CCKB (guinea pig cerebral cortex)
Method: CCKA and CCKB receptor binding assays were performed, by using guinea pig cerebral cortex (CCKB) or rat pancreas (CCKA). […]. J. Pharmacol., 269, 249-254]. Pancreatic membranes were prepared in a similar way but by Charpentier et al [(1988), Cyclic cholecystokinin analogues with high selectivity for central receptors., Proc Natl Acad Sci USA, 85, 1968-1972]. The […] CCK binding assay: Tissues were homogenised in ice cold sucrose (0.32 M, 25 ml) for 15 strokes at 500 rpm and centrifuged at 13000 rpm for 10 mins. The supernatant was re-centrifuged at 13000 rpm for 20 mins. The resulting pellet was re-dispersed to the required volume of buffer at 500 rpm and stored in aliquots at […].
The samples were incubated {with membranes (0.1 mg/ml)} in 20 mM Hepes, 1 mM EGTA, 5 mM MgCl2, 150 mm NaCl, 0.25 mg/ml bacitracin at pH 6.5 for 2 hrs at RT and then […] by centrifugation at 1100 rpm for 5 minutes. The membrane pellets were washed twice with water and the bound radioactivity was measured in a Packard Cobra Auto-gamma counter (B5005). All binding assays were carried out with L-363, 260 as an internal non-specific standard. Controls (no compound) were also added. All samples were made in duplicate and repeated twice. All compounds were initially screened for percentage inhibition at 20 μM. Samples showing an average inhibition of <35% were diluted to 2 μM and re-screened and if active diluted again.

CCKA receptor = CCKA receptor (Rattus norvegicus, UniProt P30551); test: 125I-CCK-8 receptor binding assay, CCKA (rat pancreas); details: Table 3; for IC50: read-out: IC50 CCKA; for Ratio CCKB:CCKA: ratio of IC50 values

Compound O=C1Nc2ccc(Cl)cc2C(c2ccccc2)=NC1Nc1ccc(Cl)cc1 (stereo not drawn) has an IC50 (CCKB receptor; read-out: IC50 CCKB, Table 3) of 2.9 µM and an IC50 (CCKA receptor) of no less than 20 µM.

In the case of Cc1ccc(C)c(NC2N=C(c3ccccc3)c3cc(Cl)ccc3NC2=O)c1 (stereo not drawn), the IC50 (CCKB receptor; read-out: IC50 CCKB, Table 3) is reported as 6 µM, the “Ratio CCKB:CCKA” value (CCKA receptor) is reported as 6 and the IC50 (CCKA receptor) is reported as 1 µM.

For O=C1Nc2ccc(Cl)cc2C(c2ccccc2)=NC1N(Cc1ccccc1)Cc1ccccc1 (stereo not drawn), the IC50 (CCKB receptor; read-out: CCKB IC50, Table 1) was 0.26 µM.

For Cc1ccccc1NC1N=C(c2ccccc2)c2cc(Cl)ccc2NC1=O (stereo not drawn), the IC50 (CCKB receptor; read-out: IC50 CCKB, Table 3) was 7.1 µM, the “Ratio CCKB:CCKA” value (CCKA receptor) was “+113” and the IC50 (CCKA receptor) was 10 µM.

Like-named read-outs stand apart in the source and are kept apart here. Structures were worked out from names or drawings and are uncertain.
